# Laboratory results reported in PubChem BioAssay AID540263 (National Center for Advancing Translational Sciences (NCATS), 2011).
# Protein sequences, listed by entry. Tags and fused reporters are not part of them.
# UniProt Q14974, whole entry: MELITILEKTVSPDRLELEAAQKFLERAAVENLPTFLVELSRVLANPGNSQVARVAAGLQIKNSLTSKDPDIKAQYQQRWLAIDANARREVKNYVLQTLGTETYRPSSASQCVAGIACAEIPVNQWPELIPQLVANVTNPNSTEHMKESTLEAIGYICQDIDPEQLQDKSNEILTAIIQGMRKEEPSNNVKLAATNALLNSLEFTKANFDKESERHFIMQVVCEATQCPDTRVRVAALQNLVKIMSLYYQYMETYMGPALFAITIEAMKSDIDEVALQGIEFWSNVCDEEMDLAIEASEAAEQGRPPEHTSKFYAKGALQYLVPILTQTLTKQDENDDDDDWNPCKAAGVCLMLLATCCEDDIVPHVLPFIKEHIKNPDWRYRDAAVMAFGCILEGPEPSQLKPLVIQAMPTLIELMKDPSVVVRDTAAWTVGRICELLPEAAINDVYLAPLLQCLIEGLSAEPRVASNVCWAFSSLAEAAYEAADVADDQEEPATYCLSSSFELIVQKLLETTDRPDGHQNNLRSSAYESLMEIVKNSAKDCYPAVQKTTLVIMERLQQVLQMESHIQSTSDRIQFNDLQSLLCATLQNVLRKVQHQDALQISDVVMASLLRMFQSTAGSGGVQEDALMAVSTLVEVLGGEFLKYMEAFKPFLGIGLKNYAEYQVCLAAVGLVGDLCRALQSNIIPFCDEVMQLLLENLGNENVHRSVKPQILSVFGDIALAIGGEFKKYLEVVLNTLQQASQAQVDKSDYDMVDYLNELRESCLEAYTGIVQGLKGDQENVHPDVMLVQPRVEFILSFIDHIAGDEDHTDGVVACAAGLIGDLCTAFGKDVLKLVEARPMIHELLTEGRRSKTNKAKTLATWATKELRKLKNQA
# UniProt O95149, whole entry partner: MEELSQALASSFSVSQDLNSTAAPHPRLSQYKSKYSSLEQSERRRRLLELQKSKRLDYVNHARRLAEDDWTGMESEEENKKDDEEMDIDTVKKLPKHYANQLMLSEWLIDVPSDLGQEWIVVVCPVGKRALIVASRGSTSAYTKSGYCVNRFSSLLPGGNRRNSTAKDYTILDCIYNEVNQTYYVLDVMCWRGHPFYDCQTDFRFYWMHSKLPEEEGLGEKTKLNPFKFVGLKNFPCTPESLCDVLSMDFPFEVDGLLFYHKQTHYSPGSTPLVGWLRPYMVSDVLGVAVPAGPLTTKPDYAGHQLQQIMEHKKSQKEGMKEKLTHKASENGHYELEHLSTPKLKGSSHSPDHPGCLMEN
# Out of some 340,000 compounds screened, about 100 (0.029%) were called active. Only results without a clear call are listed here; the source files them as inconclusive. Calls come from the whole dose curve.
# Molecular target: Importin subunit beta-1 (Homo sapiens) (UniProt Q14974)
# Test: qHTS Assay for Inhibitors of Rango (Ran-regulated importin-beta cargo) - Importin beta complex formation; note: nearly all actives have a fitted effect of over 15% in size
# Details: Rango CFP/YFP FRET sensor + importin beta, 45 min
# Description: NIH Molecular Libraries Probe Production Centers Network [MLPCN] NIH Chemical Genomics Center [NCGC] MLPCN Grant: R03 MH090808-01A1 Assay Submitter (PI): Petr Kalab NCGC Assay Overview: The small GTPase Ran regulates transport of macromolecules between the nucleus and the cytoplasm (nuclear transport) and has important functions in mitotic spindle assembly, nuclear envelope (NE) formation and nuclear pore complex (NPC) assembly. RanGTP gradient is thought to promote spindle assembly by providing a spatial clue to microtubule nucleation and Aurora A activation. Because the localized release and binding of importin alpha cargo relays this spatial clue to SAFs, inhibitors of the Rango - importin beta complex can then be used in further understanding their role in cell cycle specifically in mitosis progression. […] The assay used a fluorescence resonance energy transfer (FRET) Rango biosensor that contains the IBB of human snurportin 1 flanked by yellow fluorescent protein (EYFP) at the amino terminus and cerulean CFP10 at the carboxy terminus. […] FRET readings were obtained at two time points. FRET reading prior to importin beta addition (pre-read) were used flag potential compound interference; FRET reading after importin beta addition (post-read) were used to identify inhibitors using the FRET ratio parameter. […]
# Potency is the fitted concentration of half-maximal effect.
row,SMILES,Potency
1,CCC(=O)N(c1ccccc1)C1(COC)CCN(CCc2cccs2)CC1,inconclusive: 126 µM
